The campaign covered roughly 52,000 sequences. About 210 (0.4%) were called active.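 Rule for the calls: active = gene whose silencing raises cell survival under the drug, median off-target-corrected z-score across its silencing RNAs 2 or more; inactive = the rest.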 This is one part of the list.
Test: Resistance to Poly (ADP-Ribose) Polymerase inhibitor: Gene Identification via Genome-wide siRNA Screen
Details: mouse BRCA2 R2336H ES cells, olaparib, CellTiter-Glo viability; stronger effect = higher value
Summary of the method: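 Genome-wide siRNA screen (3 siRNAs/gene, 20 nM) in mouse ES cells carrying hypomorphic BRCA2 R2336H; olaparib 500 nM added 48 h post-transfection, CellTiter-Glo viability 72 h later. Normalized to plate-median negative control; MAD z-scores, gene median, seed-adjusted.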

Row | Sequence | z-score
1 | CACCGUAAUAAUCACACUATT against A830025F02Rik | inactive: -1.23
2 | GGUAACUUCAUGUGCAGCATT against AI194318 | inactive: 0.596
3 | GGAACUGAAGGGACAGGAATT against Uchl1 | inactive: -2.03
4 | GGUGGACUCUCUCUCAGAATT against Scara3 | inactive: 0.397
5 | ACAGUGUCUGGCAUCAAACTT against Mrgpra5 | inactive: -0.323
6 | CGGUGUAUCAAGUAAGGUGTT against Aup1 | inactive: -1.04
7 | CCAUAUGCAACCGUUACUUTT against Ciz1 | inactive: -0.493
8 | GGAUAAAUGUCACAGAGCUTT against Cd200 | inactive: 0.566
9 | GCAUGAGAGGUUUCAGUAUTT against Rnf150 | inactive: -1.49
10 | GAAUCUAAAGAUGAACACCTT against 0610009B22Rik | inactive: -0.48
11 | GGAGAUCACAGCAAUCCGATT against Ccna1 | inactive: 0.0362
12 | CGUAUGCAGAACAACAUUUTT against Klhl2 | inactive: -0.199
13 | GGUAGAAGAGAGCUUCAACTT against Alg12 | inactive: 1.42
14 | GCAGUGUAGAACUAGGCUGTT against Taf1c | inactive: -0.496
15 | GGUCUUUUGGUUCCAGAUCTT against Ak4 | inactive: -1.12
16 | GGGAGAAUUGUAGAUUAUUTT against Myo10 | inactive: -0.413
17 | GGCCAGCAGUGUUUUUCUUTT against Acvr1 | inactive: -0.00314
18 | GGCCAUCUGUAAGAGAAGCTT against 4921520G13Rik | inactive: 0.609
19 | CCUACGUGCACAUUUGUUUTT against Arts1 | inactive: -0.0282
20 | GGAAAGGGAAUACUUUGCUTT against Ube2q | inactive: -1.22
21 | GGUGAUGAAACAAAGACAATT against 1700022C21Rik | inactive: -0.919
22 | CGAUAUAGAAUUGUUACAGTT against Nf1 | inactive: -1.11
23 | GGCAGAAUAUACUUGCCCUTT against Attp | inactive: 0.0958
24 | GGAUUUCAAGACAUACAAGTT against Tsnaxip1 | inactive: 0.246
25 | GCCCGAAUACAGGAAGAUCTT against Hspg2 | inactive: 0.761
26 | GGACGAUUCUUUUAUUUGATT against C030014K22Rik | inactive: 0.0715
27 | GGUACCAAUAAUGGAUUUUTT against Ambn | inactive: -1.22
28 | ACUUCUACUGAAGUGAAUUTT against Krtap16-9 | inactive: 0.61
29 | GCGGACCUGCUGUUAUGAATT against Sema3b | inactive: 1.62

From entry 25 up to 26, copied from above:
Row | Sequence | z-score
25 | GCCCGAAUACAGGAAGAUCTT against Hspg2 | inactive: 0.761
26 | GGACGAUUCUUUUAUUUGATT against C030014K22Rik | inactive: 0.0715

Source: PubChem BioAssay AID1347423 (Functional Genomics Laboratory (NCATS/FGL), 2020)
